At least one compound was matched to its structure with a doubt left.
Target: T1, δC134Yβγ hENaC (Homo sapiens, UniProt P51168+P51170+P51172, C298Y)
T1 construct: expressed in transfected cells; host or cells: HEK-293
T1 sequence (P51172 1-638 isoform P51172-1 C134Y): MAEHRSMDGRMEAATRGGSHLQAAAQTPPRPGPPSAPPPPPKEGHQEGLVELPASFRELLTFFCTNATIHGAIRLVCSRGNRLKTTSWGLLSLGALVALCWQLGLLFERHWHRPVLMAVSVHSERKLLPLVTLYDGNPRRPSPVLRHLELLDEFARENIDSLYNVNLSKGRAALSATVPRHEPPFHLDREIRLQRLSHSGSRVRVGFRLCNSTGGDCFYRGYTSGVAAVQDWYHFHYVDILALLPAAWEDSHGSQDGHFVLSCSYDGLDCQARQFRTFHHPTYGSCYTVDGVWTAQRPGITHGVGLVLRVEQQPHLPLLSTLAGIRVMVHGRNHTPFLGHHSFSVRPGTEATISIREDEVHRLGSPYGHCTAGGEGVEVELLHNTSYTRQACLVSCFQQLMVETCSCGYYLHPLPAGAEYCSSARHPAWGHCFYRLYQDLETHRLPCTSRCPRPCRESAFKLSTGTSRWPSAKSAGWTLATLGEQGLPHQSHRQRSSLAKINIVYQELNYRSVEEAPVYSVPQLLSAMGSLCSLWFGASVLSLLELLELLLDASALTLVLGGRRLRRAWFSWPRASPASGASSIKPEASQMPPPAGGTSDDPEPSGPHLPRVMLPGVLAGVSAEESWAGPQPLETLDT
T1 sequence (P51168 1-640): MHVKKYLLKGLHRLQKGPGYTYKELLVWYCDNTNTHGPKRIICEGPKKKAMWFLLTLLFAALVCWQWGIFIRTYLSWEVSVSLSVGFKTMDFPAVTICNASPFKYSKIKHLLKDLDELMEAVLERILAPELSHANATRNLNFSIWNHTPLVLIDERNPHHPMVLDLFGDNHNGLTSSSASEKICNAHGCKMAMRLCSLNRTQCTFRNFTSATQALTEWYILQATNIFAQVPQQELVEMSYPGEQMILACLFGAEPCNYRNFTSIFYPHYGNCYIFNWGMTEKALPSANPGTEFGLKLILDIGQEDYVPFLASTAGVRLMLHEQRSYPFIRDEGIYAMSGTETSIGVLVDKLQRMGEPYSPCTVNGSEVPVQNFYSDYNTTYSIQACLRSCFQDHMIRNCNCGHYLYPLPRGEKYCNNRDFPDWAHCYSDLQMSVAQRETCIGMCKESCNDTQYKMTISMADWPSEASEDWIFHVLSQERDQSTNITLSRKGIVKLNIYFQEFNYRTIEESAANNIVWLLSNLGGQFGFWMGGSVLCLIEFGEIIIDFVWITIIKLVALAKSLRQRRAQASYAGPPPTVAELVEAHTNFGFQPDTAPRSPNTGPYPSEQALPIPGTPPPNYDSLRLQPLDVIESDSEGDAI
T1 sequence (P51170 1-649): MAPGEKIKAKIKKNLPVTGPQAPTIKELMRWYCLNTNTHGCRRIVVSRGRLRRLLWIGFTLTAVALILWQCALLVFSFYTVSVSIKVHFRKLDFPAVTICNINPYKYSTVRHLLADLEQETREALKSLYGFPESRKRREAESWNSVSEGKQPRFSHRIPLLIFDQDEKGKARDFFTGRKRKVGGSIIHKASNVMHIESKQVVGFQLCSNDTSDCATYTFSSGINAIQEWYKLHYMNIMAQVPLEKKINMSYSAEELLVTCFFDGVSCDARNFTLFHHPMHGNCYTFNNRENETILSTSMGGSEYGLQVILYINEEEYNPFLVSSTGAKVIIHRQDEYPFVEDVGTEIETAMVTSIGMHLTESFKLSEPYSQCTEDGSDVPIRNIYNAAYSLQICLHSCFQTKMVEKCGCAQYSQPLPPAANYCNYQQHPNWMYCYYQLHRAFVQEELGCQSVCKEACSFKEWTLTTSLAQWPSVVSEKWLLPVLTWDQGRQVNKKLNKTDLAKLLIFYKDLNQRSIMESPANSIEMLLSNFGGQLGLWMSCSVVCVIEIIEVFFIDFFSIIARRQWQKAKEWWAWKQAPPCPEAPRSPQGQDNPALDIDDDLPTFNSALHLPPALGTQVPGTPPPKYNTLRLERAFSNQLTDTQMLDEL
Experiment: Whole cell patch clamp, HEK-293 cells expressing mutant δC134Yβγ-hENaC
Format: cell-based
Conditions: HEK-293, whole cell patch clamp; no-peptide current: loss-of-function

Amino acid sequences for entries named in this document (tags omitted). A change or cut given only in a name is not applied to a line headed by its entry.
UniProt P51172: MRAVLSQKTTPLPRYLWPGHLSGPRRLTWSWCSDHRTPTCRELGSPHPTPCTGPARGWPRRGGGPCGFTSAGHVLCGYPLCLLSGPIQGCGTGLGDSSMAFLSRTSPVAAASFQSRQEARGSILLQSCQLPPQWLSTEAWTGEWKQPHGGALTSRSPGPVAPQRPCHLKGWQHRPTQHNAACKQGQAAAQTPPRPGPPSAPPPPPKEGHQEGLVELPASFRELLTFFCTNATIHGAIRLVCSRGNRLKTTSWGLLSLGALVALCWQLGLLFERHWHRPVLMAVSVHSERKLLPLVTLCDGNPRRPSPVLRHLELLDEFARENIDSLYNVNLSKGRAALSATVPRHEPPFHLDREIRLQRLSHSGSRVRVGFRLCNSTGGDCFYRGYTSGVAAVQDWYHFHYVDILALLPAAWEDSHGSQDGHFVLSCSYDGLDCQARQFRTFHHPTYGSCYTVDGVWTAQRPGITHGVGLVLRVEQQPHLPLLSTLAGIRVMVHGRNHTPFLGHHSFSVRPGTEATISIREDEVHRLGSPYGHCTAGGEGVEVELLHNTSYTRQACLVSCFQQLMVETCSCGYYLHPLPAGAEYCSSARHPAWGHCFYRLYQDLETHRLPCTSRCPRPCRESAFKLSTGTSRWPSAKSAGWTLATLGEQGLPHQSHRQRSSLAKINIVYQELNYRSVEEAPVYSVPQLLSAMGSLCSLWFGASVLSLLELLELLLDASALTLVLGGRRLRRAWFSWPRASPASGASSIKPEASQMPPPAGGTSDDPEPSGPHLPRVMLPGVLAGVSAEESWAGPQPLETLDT

With `C[C@@H]1NC(=O)CNC(=O)[C@H](CCC(=O)O)NC(=O)[C@@H]2CCCN2C(=O)[C@H]([C@@H](C)O)NC(=O)[C@H](CCC(=O)O)NC(=O)[C@H](CCCNC(=N)N)NC(=O)[C@H](CCC(N)=O)NC(=O)CNC(=O)[C@@H](N)CSSC[C@@H](C(=O)O)NC(=O)[C@H](Cc2ccc(O)cc2)NC(=O)[C@H](Cc2c[nH]c3ccccc23)NC(=O)[C@@H]2CCCN2C(=O)[C@H](CCCCN)NC(=O)[C@H](C)NC(=O)[C@H](CCC(=O)O)NC1=O` [AP301] the “AP301 restored Na+ current” value was 219.1 ± 19.8 pA.
